# Test results published in the supplement of paper PMC10849652.
# Chains of the proteins cited; added tags and fusions are not shown. Lines headed by an entry give the natural chain unless they say otherwise; changes in a name come on top.
# UniProt Q9Y6G9, whole entry, looked up: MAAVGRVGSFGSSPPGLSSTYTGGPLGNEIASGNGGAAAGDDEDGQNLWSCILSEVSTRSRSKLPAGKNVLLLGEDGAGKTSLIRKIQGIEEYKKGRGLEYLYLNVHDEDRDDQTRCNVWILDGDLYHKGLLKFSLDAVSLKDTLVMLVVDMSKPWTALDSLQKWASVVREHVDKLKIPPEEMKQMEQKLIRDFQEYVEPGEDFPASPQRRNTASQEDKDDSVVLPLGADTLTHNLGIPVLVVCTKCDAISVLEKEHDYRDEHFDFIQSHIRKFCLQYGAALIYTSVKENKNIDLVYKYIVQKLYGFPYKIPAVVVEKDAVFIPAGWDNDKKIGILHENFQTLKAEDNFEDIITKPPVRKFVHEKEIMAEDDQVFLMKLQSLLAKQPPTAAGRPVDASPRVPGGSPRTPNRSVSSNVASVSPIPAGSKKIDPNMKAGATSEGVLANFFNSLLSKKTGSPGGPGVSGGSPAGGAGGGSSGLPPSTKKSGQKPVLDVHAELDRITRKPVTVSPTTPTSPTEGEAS
# UniProt Q9Y3R5: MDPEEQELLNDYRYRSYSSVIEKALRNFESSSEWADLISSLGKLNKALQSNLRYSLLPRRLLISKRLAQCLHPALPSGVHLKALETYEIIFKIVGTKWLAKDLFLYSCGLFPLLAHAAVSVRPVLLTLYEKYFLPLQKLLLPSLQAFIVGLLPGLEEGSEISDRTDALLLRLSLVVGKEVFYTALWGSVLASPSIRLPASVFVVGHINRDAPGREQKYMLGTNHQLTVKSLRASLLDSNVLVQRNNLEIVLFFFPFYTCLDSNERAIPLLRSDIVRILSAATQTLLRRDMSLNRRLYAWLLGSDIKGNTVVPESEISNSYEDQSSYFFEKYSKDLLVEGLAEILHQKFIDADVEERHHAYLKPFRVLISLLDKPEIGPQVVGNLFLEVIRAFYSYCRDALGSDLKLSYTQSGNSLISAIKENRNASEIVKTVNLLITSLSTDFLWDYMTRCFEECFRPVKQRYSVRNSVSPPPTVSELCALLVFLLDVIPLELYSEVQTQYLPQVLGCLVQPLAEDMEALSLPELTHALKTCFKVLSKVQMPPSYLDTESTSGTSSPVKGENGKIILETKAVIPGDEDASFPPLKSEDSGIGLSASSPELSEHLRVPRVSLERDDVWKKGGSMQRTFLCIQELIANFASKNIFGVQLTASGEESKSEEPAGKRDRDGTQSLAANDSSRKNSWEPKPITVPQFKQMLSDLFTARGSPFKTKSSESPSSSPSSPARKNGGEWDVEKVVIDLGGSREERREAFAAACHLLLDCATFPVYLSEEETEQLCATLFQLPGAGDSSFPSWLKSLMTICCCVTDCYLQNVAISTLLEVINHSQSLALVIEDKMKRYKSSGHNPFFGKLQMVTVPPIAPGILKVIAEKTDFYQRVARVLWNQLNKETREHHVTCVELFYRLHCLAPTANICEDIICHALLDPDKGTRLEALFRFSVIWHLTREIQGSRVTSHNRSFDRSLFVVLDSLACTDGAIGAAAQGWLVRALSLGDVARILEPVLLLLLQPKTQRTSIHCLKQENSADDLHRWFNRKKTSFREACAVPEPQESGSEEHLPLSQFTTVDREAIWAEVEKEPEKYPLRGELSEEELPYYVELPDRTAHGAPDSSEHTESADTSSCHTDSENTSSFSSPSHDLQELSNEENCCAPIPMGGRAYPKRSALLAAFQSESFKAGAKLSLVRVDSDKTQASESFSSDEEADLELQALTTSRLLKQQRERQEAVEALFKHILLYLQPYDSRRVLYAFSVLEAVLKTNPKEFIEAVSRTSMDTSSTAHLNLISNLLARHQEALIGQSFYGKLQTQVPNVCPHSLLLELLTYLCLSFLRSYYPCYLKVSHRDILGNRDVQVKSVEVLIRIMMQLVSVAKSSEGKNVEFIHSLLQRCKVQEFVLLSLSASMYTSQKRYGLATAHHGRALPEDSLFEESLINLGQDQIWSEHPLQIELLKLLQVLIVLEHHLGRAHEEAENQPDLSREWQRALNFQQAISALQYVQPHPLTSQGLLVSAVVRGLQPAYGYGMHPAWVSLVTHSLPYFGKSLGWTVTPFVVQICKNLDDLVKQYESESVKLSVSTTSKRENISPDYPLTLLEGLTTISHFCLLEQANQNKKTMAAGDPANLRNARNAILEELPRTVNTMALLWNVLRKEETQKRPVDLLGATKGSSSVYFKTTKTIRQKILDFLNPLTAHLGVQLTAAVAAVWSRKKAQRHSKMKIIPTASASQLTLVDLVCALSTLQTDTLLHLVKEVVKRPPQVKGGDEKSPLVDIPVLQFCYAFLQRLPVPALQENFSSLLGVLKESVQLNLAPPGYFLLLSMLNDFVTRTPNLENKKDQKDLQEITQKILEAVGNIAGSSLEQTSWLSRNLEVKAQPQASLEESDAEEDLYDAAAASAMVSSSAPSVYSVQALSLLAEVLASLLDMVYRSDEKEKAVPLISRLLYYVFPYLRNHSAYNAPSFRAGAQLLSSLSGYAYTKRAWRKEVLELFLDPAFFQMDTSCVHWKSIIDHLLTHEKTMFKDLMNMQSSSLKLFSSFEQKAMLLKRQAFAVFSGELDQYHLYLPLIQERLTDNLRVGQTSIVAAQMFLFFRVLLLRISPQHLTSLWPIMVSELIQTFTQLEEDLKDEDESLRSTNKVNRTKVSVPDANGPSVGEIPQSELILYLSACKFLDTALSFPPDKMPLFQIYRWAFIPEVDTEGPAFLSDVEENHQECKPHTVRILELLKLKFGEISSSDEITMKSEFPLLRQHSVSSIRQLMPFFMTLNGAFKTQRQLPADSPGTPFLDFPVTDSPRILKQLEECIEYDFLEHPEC
# UniProt Q9P2X0: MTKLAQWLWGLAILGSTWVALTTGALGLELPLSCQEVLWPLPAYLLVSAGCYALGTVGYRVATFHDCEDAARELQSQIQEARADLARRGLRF
# UniProt Q9BQ95: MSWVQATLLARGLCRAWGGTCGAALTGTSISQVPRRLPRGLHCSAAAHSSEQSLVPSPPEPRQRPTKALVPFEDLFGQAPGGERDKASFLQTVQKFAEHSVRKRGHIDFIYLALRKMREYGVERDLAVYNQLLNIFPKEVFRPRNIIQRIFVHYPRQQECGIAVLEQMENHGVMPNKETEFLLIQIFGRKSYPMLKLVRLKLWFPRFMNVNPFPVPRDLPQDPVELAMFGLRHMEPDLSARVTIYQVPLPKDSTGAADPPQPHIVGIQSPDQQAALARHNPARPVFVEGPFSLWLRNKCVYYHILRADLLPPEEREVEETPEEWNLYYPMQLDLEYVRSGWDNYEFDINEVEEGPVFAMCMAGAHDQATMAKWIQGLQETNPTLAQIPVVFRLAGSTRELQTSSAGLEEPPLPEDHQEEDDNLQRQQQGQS
# UniProt Q9Y2G8: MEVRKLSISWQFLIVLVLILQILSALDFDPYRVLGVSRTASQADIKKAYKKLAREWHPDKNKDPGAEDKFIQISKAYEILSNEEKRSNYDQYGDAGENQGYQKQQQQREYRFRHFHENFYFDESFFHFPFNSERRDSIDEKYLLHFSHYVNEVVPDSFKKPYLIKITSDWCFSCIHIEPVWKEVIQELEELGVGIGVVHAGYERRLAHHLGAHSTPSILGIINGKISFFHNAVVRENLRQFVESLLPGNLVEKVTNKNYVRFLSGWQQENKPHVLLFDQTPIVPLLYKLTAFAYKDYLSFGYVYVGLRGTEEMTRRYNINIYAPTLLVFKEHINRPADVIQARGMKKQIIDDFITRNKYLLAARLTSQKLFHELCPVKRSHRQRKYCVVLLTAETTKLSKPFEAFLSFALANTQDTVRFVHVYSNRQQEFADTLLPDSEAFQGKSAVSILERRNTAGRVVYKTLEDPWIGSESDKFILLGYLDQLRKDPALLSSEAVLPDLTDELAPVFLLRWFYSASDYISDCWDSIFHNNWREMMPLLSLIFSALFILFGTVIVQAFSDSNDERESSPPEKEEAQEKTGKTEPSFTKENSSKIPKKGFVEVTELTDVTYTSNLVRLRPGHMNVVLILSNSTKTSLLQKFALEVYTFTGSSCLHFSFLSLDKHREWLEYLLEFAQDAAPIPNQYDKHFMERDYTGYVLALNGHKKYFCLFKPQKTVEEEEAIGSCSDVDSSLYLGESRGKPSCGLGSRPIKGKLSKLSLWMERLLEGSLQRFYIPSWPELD
# UniProt Q15075: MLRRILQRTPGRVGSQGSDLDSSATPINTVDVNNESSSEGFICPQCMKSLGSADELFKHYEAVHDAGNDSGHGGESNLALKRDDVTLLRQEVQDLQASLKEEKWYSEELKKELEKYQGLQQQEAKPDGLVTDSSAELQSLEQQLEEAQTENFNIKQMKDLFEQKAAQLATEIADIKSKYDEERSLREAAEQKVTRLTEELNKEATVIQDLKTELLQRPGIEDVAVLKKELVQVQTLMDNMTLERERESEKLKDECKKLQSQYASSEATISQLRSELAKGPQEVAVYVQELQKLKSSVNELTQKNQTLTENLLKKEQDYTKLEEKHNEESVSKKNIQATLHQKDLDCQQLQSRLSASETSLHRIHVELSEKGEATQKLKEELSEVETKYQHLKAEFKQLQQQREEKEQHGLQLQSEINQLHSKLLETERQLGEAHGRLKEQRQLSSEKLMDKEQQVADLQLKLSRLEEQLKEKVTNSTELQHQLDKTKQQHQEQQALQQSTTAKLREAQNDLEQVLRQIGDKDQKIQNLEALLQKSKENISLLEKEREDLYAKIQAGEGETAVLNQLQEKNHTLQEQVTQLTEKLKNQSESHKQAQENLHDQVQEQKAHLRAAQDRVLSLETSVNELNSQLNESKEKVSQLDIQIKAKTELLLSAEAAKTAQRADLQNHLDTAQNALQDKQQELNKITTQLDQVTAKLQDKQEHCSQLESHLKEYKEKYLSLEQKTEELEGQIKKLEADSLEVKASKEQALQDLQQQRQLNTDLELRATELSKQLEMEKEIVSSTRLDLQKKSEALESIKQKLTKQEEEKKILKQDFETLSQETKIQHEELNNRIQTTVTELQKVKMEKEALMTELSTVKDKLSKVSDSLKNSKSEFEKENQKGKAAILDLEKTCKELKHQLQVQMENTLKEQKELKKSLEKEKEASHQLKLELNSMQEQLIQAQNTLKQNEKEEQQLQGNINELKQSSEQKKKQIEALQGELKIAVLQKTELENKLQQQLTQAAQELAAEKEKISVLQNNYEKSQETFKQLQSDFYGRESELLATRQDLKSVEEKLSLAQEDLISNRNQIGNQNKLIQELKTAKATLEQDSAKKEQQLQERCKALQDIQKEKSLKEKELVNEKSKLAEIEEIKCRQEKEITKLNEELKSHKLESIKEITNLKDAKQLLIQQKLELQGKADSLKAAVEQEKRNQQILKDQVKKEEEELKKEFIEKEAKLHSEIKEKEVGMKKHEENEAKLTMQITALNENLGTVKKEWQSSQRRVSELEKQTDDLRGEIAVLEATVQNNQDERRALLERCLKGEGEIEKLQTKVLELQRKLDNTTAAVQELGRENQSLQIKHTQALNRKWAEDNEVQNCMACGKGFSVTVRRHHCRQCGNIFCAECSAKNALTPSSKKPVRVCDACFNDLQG
# UniProt Q96G46: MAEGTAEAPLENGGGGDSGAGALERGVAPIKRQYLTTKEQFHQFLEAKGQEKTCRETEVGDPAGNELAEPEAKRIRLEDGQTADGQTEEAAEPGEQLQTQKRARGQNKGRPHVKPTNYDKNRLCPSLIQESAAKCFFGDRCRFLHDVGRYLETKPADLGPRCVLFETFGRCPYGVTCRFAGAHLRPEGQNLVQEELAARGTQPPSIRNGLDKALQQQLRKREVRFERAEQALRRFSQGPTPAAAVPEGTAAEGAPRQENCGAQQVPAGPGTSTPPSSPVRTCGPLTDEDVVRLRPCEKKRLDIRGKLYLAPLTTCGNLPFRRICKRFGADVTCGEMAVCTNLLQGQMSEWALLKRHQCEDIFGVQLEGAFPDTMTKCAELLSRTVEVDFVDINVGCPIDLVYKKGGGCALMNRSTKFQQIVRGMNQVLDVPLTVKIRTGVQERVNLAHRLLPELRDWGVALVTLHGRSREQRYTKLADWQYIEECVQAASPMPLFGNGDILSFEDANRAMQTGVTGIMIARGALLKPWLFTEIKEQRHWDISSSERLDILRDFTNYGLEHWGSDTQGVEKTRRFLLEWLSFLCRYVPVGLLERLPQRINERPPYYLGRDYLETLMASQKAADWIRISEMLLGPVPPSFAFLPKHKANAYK
# UniProt Q9BU89: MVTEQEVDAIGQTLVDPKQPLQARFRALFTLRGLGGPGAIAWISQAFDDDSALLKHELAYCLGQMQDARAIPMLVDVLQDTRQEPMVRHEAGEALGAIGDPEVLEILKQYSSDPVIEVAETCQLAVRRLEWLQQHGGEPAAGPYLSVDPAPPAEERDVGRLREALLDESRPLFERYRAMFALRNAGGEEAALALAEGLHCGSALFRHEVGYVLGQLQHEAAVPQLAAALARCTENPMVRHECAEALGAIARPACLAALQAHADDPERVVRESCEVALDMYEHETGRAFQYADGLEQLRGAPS
# Some of the results follow.
# Tests used:
# Experiment in all cases: log2 fold change, soluble protein after heating vs DMSO (PISA); higher = thermal stabilisation; K562 cells, 10 uM, 30 min; active = over 0.2 and 3.5 SD of the protein, either way, in both replicates (recomputed)
# [1] = compound: CS(=O)(=O)c1ccc(-c2cnc(N)c(C(=O)Nc3ccccc3)n2)cc1
# Method in brief: (§1)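 K562 cells at 2×10^6 cells/mL were given 10 μM compound for 30 min. Aliquots then went through 3 min of heating across 48°C-58°C, were pooled, and were extracted in PBS with 0.5% NP-40 at 4°C, and the supernatant after 21,000xg for 90 min was quantified by TMTpro 16plex LC-MS/MS with channel sums equalised. Thermal stability relative to control samples, from duplicates, is given as log2 fold change.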
# [2] = compound: C[C@@H](Oc1cc(-c2cnn(C3CCNCC3)c2)cnc1N)c1c(Cl)ccc(F)c1Cl [crizotinib]
# Method in brief: as §1
# [3] = compound: C[C@@H]1COCCN1C2=NC(=NC(=C2)C3(CC3)S(=O)(=O)C)C4=C5C=CNC5=CC=C4
# Method in brief: as §1
# [4] = compound: C[C@H](C1=CC=C(C=C1)C(=O)NC2=C3C=CNC3=NC=C2)N
# Method in brief: as §1
# [5] = compound: C[C@H](Nc1ncnc2nc[nH]c12)c1cc2cccc(Cl)c2c(=O)n1-c1ccccc1 [duvelisib]
# Method in brief: as §1
# [6] = compound: Cc1cc(Nc2cc(CN3CCOCC3)c3nc(C)c(Cc4ccc(Cl)cc4F)n3n2)n[nH]1 [gandotinib]
# Method in brief: as §1
# [7] = compound: Cc1cc(Nc2cc(N3CCN(C)CC3)nc(Sc3ccc(NC(=O)C4CC4)cc3)n2)n[nH]1 [tozasertib]
# Method in brief: as §1
# [8] = compound: Cc1cc(SCc2sc(-c3ccc(C(F)(F)F)cc3)nc2C)ccc1OCC(=O)O
# Method in brief: as §1
# [9] = compound: Cc1ccc(-n2nc(C(C)(C)C)cc2NC(=O)Nc2ccc(OCCN3CCOCC3)c3ccccc23)cc1 [doramapimod]
# Method in brief: as §1
# [10] = compound: Cc1ccc(C(=O)N(CCCN)[C@@H](c2nc3cc(Cl)ccc3c(=O)n2Cc2ccccc2)C(C)C)cc1 [ispinesib]
# Method in brief: as §1
# [11] = compound: Cc1ccc(NC(=O)c2ccc(CN3CC[C@H](N(C)C)C3)c(C(F)(F)F)c2)cc1Nc1nccc(-c2cncnc2)n1 [bafetinib]
# Method in brief: as §1
# [12] = compound: Cc1cccc(CC(=O)N2CCc3c2ccc(-c2cn(C)c4ncnc(N)c24)c3F)n1
# Method in brief: as §1
# [13] = compound: Cc1cn(-c2cc(NC(=O)c3ccc(C)c(Nc4nccc(-c5cccnc5)n4)c3)cc(C(F)(F)F)c2)cn1 [nilotinib]
# Method in brief: as §1
# [14] = compound: Cc1nc(Nc2n[nH]c3c2CN(C(=O)N[C@H](CN(C)C)c2ccccc2)C3(C)C)c2sccc2n1
# Method in brief: as §1
# [15] = compound: Cc1nc(Nc2ncc(C(=O)Nc3c(C)cccc3Cl)s2)cc(N2CCN(CCO)CC2)n1 [dasatinib]
# Method in brief: as §1
# [16] = compound: Cc1ncc(-c2ccnc(Nc3ccc(S(C)(=O)=O)cc3)n2)n1C(C)C
# Method in brief: as §1
# [17] = compound: Cn1cc(-c2ccc3c(c2)CCN3C(=O)Cc2cccc(C(F)(F)F)c2)c2c(N)ncnc21
# Method in brief: as §1
# [18] = compound: Cn1cc(-c2ccc3nnc(C(F)(F)c4ccc5ncccc5c4)n3n2)cn1
# Method in brief: as §1
# [19] = compound: Cn1cncc1[C@@](N)(c1ccc(Cl)cc1)c1ccc2c(c1)c(-c1cccc(Cl)c1)cc(=O)n2C [tipifarnib]
# Method in brief: as §1
# [20] = compound: FC(F)(F)c1ccc(/C=C/c2nc(COc3ccc(CCCCn4ccnn4)cc3)co2)cc1 [mubritinib]
# Method in brief: as §1
Target,log2 fold change [1],log2 fold change [2],log2 fold change [3],log2 fold change [4],log2 fold change [5],log2 fold change [6],log2 fold change [7],log2 fold change [8],log2 fold change [9],log2 fold change [10],log2 fold change [11],log2 fold change [12],log2 fold change [13],log2 fold change [14],log2 fold change [15],log2 fold change [16],log2 fold change [17],log2 fold change [18],log2 fold change [19],log2 fold change [20]
DYNC1LI1 (UniProt Q9Y6G9),inactive: 0.054,inactive: -0.087,inactive: -0.006,inactive: 0.001,inactive: -0.029,inactive: -0.014,inactive: -0.018,inactive: 0.04,inactive: -0.006,inactive: -0.027,inactive: 0.033,inactive: 0.058,inactive: 0.016,inactive: 0.011,inactive: -0.056,inactive: 0.007,inactive: 0.009,inactive: -0.016,inactive: -0.034,inactive: 0.07
EBNA1BP2 (UniProt Q99848),inactive: -0.013,inactive: -0.025,inactive: -0.236,inactive: 0.394,,inactive: 0.104,,inactive: 0.025,inactive: 0.282,inactive: 0.21,inactive: 0.312,inactive: -0.114,inactive: 0.114,inactive: -0.089,inactive: 0.226,inactive: -0.004,inactive: -0.499,inactive: -0.176,inactive: 0.134,inactive: -0.124
DOP1B (UniProt Q9Y3R5),inactive: -0.052,inactive: 0.226,inactive: 0.081,inactive: 0.147,,inactive: 0.299,inactive: -0.182,,inactive: 0.239,inactive: -0.063,inactive: -0.123,inactive: -0.014,inactive: -0.241,inactive: -0.105,,inactive: 0.143,inactive: -0.034,inactive: 0.21,,inactive: 0.156
DNAJC19 (UniProt Q96DA6),inactive: 0.008,inactive: -0.073,inactive: 0.055,inactive: -0.089,,inactive: 0.011,,inactive: -0.017,inactive: -0.011,inactive: -0.069,inactive: -0.123,inactive: 0.003,inactive: 0.025,inactive: 0.002,inactive: -0.003,inactive: -0.005,inactive: 0.012,inactive: 0.022,inactive: 0.012,inactive: 0.001
DPM3 isoform 2 (UniProt Q9P2X0),inactive: 0.115,inactive: -0.157,inactive: 0.16,inactive: -0.084,inactive: 0.229,,inactive: -0.051,inactive: -0.026,inactive: 0.07,inactive: -0.011,inactive: -0.101,,inactive: 0.061,inactive: 0.044,inactive: -0.086,inactive: -0.055,inactive: 0.125,inactive: 0.09,inactive: 0.061,inactive: 0.071
E2F3 (UniProt O00716),inactive: 0.029,inactive: -0.107,inactive: 0.054,inactive: 0.006,,inactive: -0.163,inactive: -0.019,,inactive: 0.011,inactive: -0.094,inactive: 0.015,inactive: -0.03,inactive: 0.033,inactive: 0.113,,inactive: -0.165,inactive: -0.117,inactive: -0.079,,inactive: -0.032
DONSON (UniProt Q9NYP3),inactive: 0.033,inactive: -0.343,inactive: -0.352,inactive: 0.027,inactive: -0.26,inactive: -0.297,inactive: -0.088,inactive: -0.304,inactive: -0.071,inactive: -0.02,,inactive: -0.104,inactive: 0.121,inactive: -0.215,inactive: 0.053,inactive: -0.614,inactive: -0.048,inactive: -0.378,,
ECSIT (UniProt Q9BQ95),inactive: 0.024,inactive: 0.027,inactive: 0.032,inactive: 0.025,inactive: 0.022,inactive: -0.045,inactive: 0.012,inactive: -0.056,inactive: 0.011,inactive: 0.03,inactive: -0.034,inactive: 0.066,inactive: 0.032,inactive: 0.062,inactive: 0.042,inactive: -0.053,inactive: 0.043,inactive: 0.017,inactive: 0.078,inactive: 0.029
ECI2 (UniProt O75521),inactive: 0.017,inactive: 0.042,inactive: 0.072,inactive: -0.011,inactive: 0.033,inactive: -0.026,inactive: -0.034,inactive: 0.015,inactive: -0.026,inactive: 0.028,inactive: -0.047,inactive: 0,inactive: 0.024,inactive: -0.056,inactive: -0.031,inactive: 0.04,inactive: 0.044,inactive: 0.023,inactive: 0.012,inactive: 0.006
DNAJC16 (UniProt Q9Y2G8),inactive: 0.05,inactive: 0.026,inactive: -0.076,inactive: 0.263,inactive: 0.034,inactive: -0.026,inactive: 0.001,inactive: -0.143,inactive: -0.001,,inactive: 0.08,inactive: -0.043,inactive: -0.235,inactive: -0.017,inactive: -0.005,inactive: 0.053,inactive: -0.055,,inactive: -0.029,
DYRK1A isoform 2 (UniProt Q13627),inactive: 0.008,inactive: -0.181,inactive: 0.045,inactive: -0.107,,inactive: -0.102,,inactive: 0.042,inactive: 0.014,inactive: -0.059,inactive: -0.073,inactive: 0.02,inactive: -0.005,inactive: -0.056,inactive: -0.098,inactive: -0.047,inactive: 0.021,inactive: -0.046,inactive: -0.042,inactive: 0.034
DTWD1 (UniProt Q8N5C7),inactive: 0.053,inactive: 0.067,inactive: 0.061,inactive: 0.014,,inactive: 0.098,,inactive: 0.012,inactive: 0.009,inactive: -0.001,inactive: 0.006,inactive: -0.014,inactive: 0.057,inactive: 0,inactive: 0.001,inactive: 0.082,inactive: 0.051,inactive: -0.027,inactive: -0.02,inactive: 0.02
EEA1 (UniProt Q15075),inactive: -0.007,inactive: -0.007,inactive: -0.014,inactive: -0.046,,inactive: 0.02,,inactive: -0.04,inactive: 0.002,active: -0.22,inactive: -0.043,inactive: -0.021,inactive: 0.013,inactive: 0,inactive: 0.061,inactive: 0.004,inactive: -0.015,inactive: 0.028,inactive: 0.007,inactive: 0.041
DNAJC13 (UniProt O75165),inactive: -0.028,inactive: 0.013,inactive: 0.004,inactive: 0.082,inactive: 0,inactive: -0.08,inactive: 0.02,inactive: 0.015,inactive: 0.005,inactive: -0.266,inactive: -0.027,inactive: 0.098,inactive: -0.146,inactive: -0.134,inactive: -0.105,inactive: 0.122,inactive: -0.017,inactive: -0.068,inactive: 0.019,inactive: 0.104
DUS3L (UniProt Q96G46),inactive: -0.015,inactive: 0.112,inactive: 0.019,inactive: -0.075,,inactive: -0.027,,inactive: 0.022,inactive: 0.033,inactive: 0,inactive: -0.041,inactive: -0.02,inactive: -0.073,inactive: -0.059,inactive: -0.005,inactive: 0.021,inactive: -0.064,inactive: -0.017,inactive: 0.053,inactive: -0.115
DOHH (UniProt Q9BU89),inactive: 0.049,inactive: 0.06,inactive: 0.287,inactive: -0.154,,inactive: 0.029,,inactive: 0.022,inactive: 0.005,inactive: -0.015,active: 0.653,inactive: 0.008,inactive: 0.035,inactive: -0.169,inactive: 0.013,inactive: -0.054,inactive: -0.089,inactive: 0.022,inactive: 0.014,inactive: 0.03
ECPAS (UniProt Q5VYK3),inactive: 0,inactive: -0.18,inactive: 0.01,inactive: 0.081,,inactive: -0.115,,inactive: 0.099,inactive: -0.032,inactive: -0.016,inactive: 0.031,inactive: 0.105,inactive: -0.067,inactive: -0.038,active: -0.255,inactive: 0.077,inactive: -0.011,inactive: -0.043,inactive: -0.202,inactive: 0.021

# 2 records picked at random from the list so far:
Target,log2 fold change [1],log2 fold change [2],log2 fold change [3],log2 fold change [4],log2 fold change [5],log2 fold change [6],log2 fold change [7],log2 fold change [8],log2 fold change [9],log2 fold change [10],log2 fold change [11],log2 fold change [12],log2 fold change [13],log2 fold change [14],log2 fold change [15],log2 fold change [16],log2 fold change [17],log2 fold change [18],log2 fold change [19],log2 fold change [20]
DOHH (UniProt Q9BU89),inactive: 0.049,inactive: 0.06,inactive: 0.287,inactive: -0.154,,inactive: 0.029,,inactive: 0.022,inactive: 0.005,inactive: -0.015,active: 0.653,inactive: 0.008,inactive: 0.035,inactive: -0.169,inactive: 0.013,inactive: -0.054,inactive: -0.089,inactive: 0.022,inactive: 0.014,inactive: 0.03
DUS3L (UniProt Q96G46),inactive: -0.015,inactive: 0.112,inactive: 0.019,inactive: -0.075,,inactive: -0.027,,inactive: 0.022,inactive: 0.033,inactive: 0,inactive: -0.041,inactive: -0.02,inactive: -0.073,inactive: -0.059,inactive: -0.005,inactive: 0.021,inactive: -0.064,inactive: -0.017,inactive: 0.053,inactive: -0.115
